In US9931331B2 (priority 2013, dated 2018):
At least one structure is not confirmed: it was looked up by name or label, or the drawing left a doubt.

System: kidney cancer cell (Caki-1)
Assay: Cell viability (calcein-AM / ethidium homodimer-1), Caki-1
Conditions: celastrol alone up to 1 μM, 24 h
Procedure: Strains of cervical cancer cell (HeLa), kidney cancer cell (Caki-1), brain tumor cell (T98G), breast cancer cell (MDA-MB 435S), and colon cancer cell (DLD-1), multiple myeloma cell (RPMI-8226), and a strain of normal breast epithelial cell (MCF-10A) were available from ATCC (American Type Culture Collection, USA). The strains of cervical cancer cell (HeLa), kidney cancer cell (Caki-1), brain tumor cell (T98G), breast cancer cell (MDA-MB 435S), and colon cancer cell (DLD-1) were cultured by using a DMEM medium including 10% fetal bovine serum (FBS), 2 mM of L-glutamin, 100 i.u./ml of penicillin, and […] of streptomycin for the culture and maintenance; multiple myeloma cell (RPMI-8226) was cultured by using a RPMI1640 medium including 10% FBS, 100 i.u./ml of penicillin, and […] of streptomycin; and the strain of normal breast epithelial cell (MCF-10A) was cultured by using a mammary epithelial growth medium (MEGM) including a bovine pituitary extract, insulin, human epidermal growth factor, hydrocortisone, and antibiotics, and the culture conditions included 37° C. and 5% CO2 in an incubator.
Then, the cells were stained by using 2 μM calcein-AM and 4 μM ethidium homodimer-1, and cell viability was measured by using a fluorescent microscope (Axiovert 200M, available from Carl Zeiss, Jena, Germany).

Q: For `CC1=C(O)C(=O)C=C2C1=CC=C1[C@@]2(C)CC[C@@]2(C)[C@@H]3C[C@](C)(C(=O)O)CC[C@]3(C)CC[C@]12C` [Celastrol], which cancer cell toxicity is on record?
A: did not induce cancer cell toxicity
